{
  "source": "the supplement of paper PMC10663445",
  "note": "Counter-ions that a name gives are not always drawn. The list shows a part of the results. Most values come without repeats; read them as rough.",
  "data": [
    {"system": "hsa-miR-132-3p", "test": "miR-132-3p level in NGN2-iNs after compound treatment (TMM-normalised, ComBat batch-corrected) (batch-corrected normalised expression (arbitrary units)); higher = higher miR-132-3p expression", "conditions": "10 µM; 24 h; human iPSC-derived NGN2 neurons (BR43)", "values": [
      {"smiles": "CCCCCCNC(=O)n1cc(F)c(=O)[nH]c1=O", "note": "[Carmofur]", "miR-132-3p level in NGN2-iNs": 0.0735},
      {"smiles": "Cc1nc(C(=O)NCC(=O)O)c(O)c2ccc(Oc3ccccc3)cc12", "note": "[Roxadustat (FG-4592)]", "miR-132-3p level in NGN2-iNs": -0.259},
      {"smiles": "COc1cccc2c1C(=O)c1c(O)c3c(c(O)c1C2=O)C[C@@](O)(C(=O)CO)C[C@@H]3O[C@H]1C[C@H](N)[C@H](O[C@@H]2CCCCO2)[C@H](C)O1", "note": "[Pirarubicin]", "miR-132-3p level in NGN2-iNs": 0.187},
      {"smiles": "CC#C[C@]1(O)CC[C@H]2[C@@H]3CCC4=CC(=O)CCC4=C3[C@@H](c3ccc(N(C)C)cc3)C[C@@]21C", "note": "[Mifepristone]", "miR-132-3p level in NGN2-iNs": -1.19},
      {"smiles": "COC(=O)N[C@@H](C)CNc1nccc(-c2cn(C(C)C)nc2-c2cc(Cl)cc(NS(C)(=O)=O)c2F)n1", "note": "[Encorafenib (LGX818)]", "miR-132-3p level in NGN2-iNs": -0.493},
      {"smiles": "CC[C@@H]1C(=O)N(C)c2cnc(Nc3ccc(C(=O)N[C@H]4CC[C@H](N5CCN(CC6CC6)CC5)CC4)cc3OC)nc2N1C(C)C", "note": "[Volasertib (BI 6727)]", "miR-132-3p level in NGN2-iNs": -0.897},
      {"smiles": "CCc1cccc(CC)c1NC(=O)N1Cc2[nH]nc(NC(=O)c3ccc(N4CCN(C)CC4)cc3)c2C1", "miR-132-3p level in NGN2-iNs": 0.699},
      {"smiles": "Nc1nc(=O)n([C@@H]2CS[C@H](CO)O2)cc1F", "note": "[Emtricitabine]", "miR-132-3p level in NGN2-iNs": 0.409},
      {"smiles": "COc1ccc(Cl)cc1C(=O)NCCc1ccc(S(=O)(=O)NC(=O)NC2CCCCC2)cc1", "note": "[Glyburide (Glibenclamide)]", "miR-132-3p level in NGN2-iNs": -1},
      {"smiles": "C[C@@H]1C/C=C/C=C/C=C/C=C/[C@H](O[C@@H]2O[C@H](C)[C@@H](O)[C@H](N)[C@@H]2O)C[C@@H]2O[C@](O)(C[C@@H](O)C[C@H]3O[C@@H]3/C=C/C(=O)O1)C[C@H](O)[C@H]2C(=O)O", "note": "[Natamycin]", "miR-132-3p level in NGN2-iNs": 0.233},
      {"smiles": "CC(C(O)c1ccc(O)cc1)N1CCC(Cc2ccccc2)CC1", "note": "(centres undefined) [Ifenprodil Tartrate]", "miR-132-3p level in NGN2-iNs": -0.579},
      {"smiles": "CCn1c(=O)c2c(nc(/C=C/c3ccc(OC)c(OC)c3)n2C)n(CC)c1=O", "note": "[Istradefylline]", "miR-132-3p level in NGN2-iNs": 1.23},
      {"smiles": "CC(C)(Oc1ccc(Cl)cc1)C(=O)OCCOC(=O)c1cccnc1", "note": "[Etofibrate]", "miR-132-3p level in NGN2-iNs": 0.0675},
      {"smiles": "Cc1cc(C)nc(NS(=O)(=O)c2ccc(N)cc2)n1", "note": "[Sulfamethazine]", "miR-132-3p level in NGN2-iNs": -0.106},
      {"smiles": "CC1(C)O[C@@H]2C[C@H]3[C@@H]4C[C@H](F)C5=CC(=O)C=C[C@]5(C)[C@@]4(F)[C@@H](O)C[C@]3(C)[C@]2(C(=O)CO)O1", "note": "[Fluocinolone Acetonide]", "miR-132-3p level in NGN2-iNs": 1.22},
      {"smiles": "CC(C)[C@H](N)C(=O)OCCOCn1cnc2c(=O)nc(N)[nH]c21", "note": "[Valaciclovir HCl]", "miR-132-3p level in NGN2-iNs": 0.29},
      {"smiles": "CC(C)N(CC[C@H](c1ccccc1)c1cc(CO)ccc1O)C(C)C", "miR-132-3p level in NGN2-iNs": 1.47},
      {"smiles": "CC(C)(C)c1cc(NC(=O)Nc2ccc(-c3cn4c(n3)sc3cc(OCCN5CCOCC5)ccc34)cc2)no1", "note": "[Quizartinib (AC220)]", "miR-132-3p level in NGN2-iNs": 1.01},
      {"smiles": "CC1(C)Cc2c(-c3ccccc3)c(-c3ccc(Cl)cc3)c(CC(=O)O)n2C1", "note": "[Licofelone (ML3000)]", "miR-132-3p level in NGN2-iNs": -0.414},
      {"smiles": "O=C(/C=C/c1cccc(S(=O)(=O)Nc2ccccc2)c1)NO", "note": "[Belinostat (PXD101)]", "miR-132-3p level in NGN2-iNs": 0.686},
      {"smiles": "CC#CCn1c(N2CCC[C@@H](N)C2)nc2c1c(=O)n(Cc1nc(C)c3ccccc3n1)c(=O)n2C", "note": "[Linagliptin]", "miR-132-3p level in NGN2-iNs": -0.828},
      {"smiles": "CCN(CC)CCOCCOC(=O)C1(c2ccccc2)CCCC1", "note": "[Pentoxyverine Citrate]", "miR-132-3p level in NGN2-iNs": 0.253},
      {"smiles": "Cc1cc(C(C)(C)C)cc(C)c1CC1=NCCN1", "note": "[Xylometazoline HCl]", "miR-132-3p level in NGN2-iNs": -0.799},
      {"smiles": "COc1cc(NC(=O)c2ccccn2)ccc1Cl", "miR-132-3p level in NGN2-iNs": -0.477},
      {"smiles": "CC(C)(CO)[C@@H](O)C(=O)NCCC(=O)O", "note": "[D-Pantothenic acid]", "miR-132-3p level in NGN2-iNs": -0.532},
      {"smiles": "O=c1c(O)c(-c2ccc(O)cc2)oc2cc(O)cc(O)c12", "note": "[Kaempferol]", "miR-132-3p level in NGN2-iNs": -1.3},
      {"smiles": "CNC(=O)c1ccc(N2C(=S)N(c3ccc(C#N)c(C(F)(F)F)c3)C(=O)C2(C)C)cc1F", "note": "[Enzalutamide (MDV3100)]", "miR-132-3p level in NGN2-iNs": 0.207},
      {"smiles": "CCCc1ccc(OCC(=O)N(Cc2nc(-c3cccnc3)no2)C(C)C)cc1", "miR-132-3p level in NGN2-iNs": 0.342},
      {"smiles": "COc1cc(OC)c(NC(=O)Nc2cc(C)on2)cc1Cl", "miR-132-3p level in NGN2-iNs": -0.547},
      {"smiles": "NC[C@H](O)c1ccc(O)c(O)c1", "note": "[Noradrenaline bitartrate monohydrate]", "miR-132-3p level in NGN2-iNs": -1.49},
      {"smiles": "CCN(CC)CCNC(=O)c1ccc(N)cc1", "note": "[Procainamide HCl]", "miR-132-3p level in NGN2-iNs": -0.104},
      {"smiles": "CCn1c(N)c(C(=O)NC)c(=O)c2ccc(C#CC(C)(O)COC)nc21", "note": "(centres undefined)", "miR-132-3p level in NGN2-iNs": 1.09},
      {"smiles": "CC[C@H]1OC(=O)[C@H](C)[C@@H](O[C@H]2C[C@@](C)(OC)[C@@H](O)[C@H](C)O2)[C@H](C)[C@@H](O[C@@H]2O[C@H](C)C[C@H](N(C)C)[C@H]2O)[C@](C)(O)C[C@@H](C)CN(C)[C@H](C)[C@@H](O)[C@]1(C)O", "note": "[Azithromycin]", "miR-132-3p level in NGN2-iNs": 1.12},
      {"smiles": "OCCn1cc(-c2ccc3c(c2)CC/C3=N\\O)c(-c2ccncc2)n1", "miR-132-3p level in NGN2-iNs": 0.641},
      {"smiles": "CN1CCc2nc(C(=O)N[C@@H]3C[C@@H](C(=O)N(C)C)CC[C@@H]3NC(=O)C(=O)Nc3ccc(Cl)cn3)sc2C1", "note": "[Edoxaban tosylate Monohydrate]", "miR-132-3p level in NGN2-iNs": -0.494},
      {"smiles": "CC(C)[N+]1(C)[C@@H]2CC[C@H]1C[C@@H](OC(=O)C(CO)c1ccccc1)C2", "note": "(some centres undefined) [Ipratropium Bromide]", "miR-132-3p level in NGN2-iNs": 0.293},
      {"smiles": "O=C(O)c1cccc(-c2noc(-c3ccccc3F)n2)c1", "note": "[Ataluren (PTC124)]", "miR-132-3p level in NGN2-iNs": -0.725},
      {"smiles": "C[C@]12CC[C@@H]3c4ccc(O)cc4C[C@@H](CCCCCCCCC[S+]([O-])CCCC(F)(F)C(F)(F)F)[C@H]3[C@@H]1CC[C@@H]2O", "note": "(some centres undefined) [Fulvestrant]", "miR-132-3p level in NGN2-iNs": 0.101},
      {"smiles": "Clc1ccc(C2(c3ccc(-c4cn[nH]c4)cc3)CCNCC2)cc1", "miR-132-3p level in NGN2-iNs": 1.36},
      {"smiles": "CCS(=O)(=O)c1cccc(-c2cc(C(=O)NC3CCN(C)CC3)c(C)c3[nH]c4ncc(C)cc4c23)c1", "miR-132-3p level in NGN2-iNs": 0.352},
      {"smiles": "COC(=O)[C@H](Cc1ccccc1)NC(=O)[C@@H](N)CC(=O)O", "note": "[Aspartame]", "miR-132-3p level in NGN2-iNs": -0.502},
      {"smiles": "NC(=O)C1CCCc2c1[nH]c1ccc(Cl)cc21", "note": "(centres undefined) [Selisistat (EX 527)]", "miR-132-3p level in NGN2-iNs": -2.85},
      {"smiles": "N#C/C(=C1/SC[C@@H](c2ccc(Cl)cc2Cl)S1)n1ccnc1", "note": "[Luliconazole]", "miR-132-3p level in NGN2-iNs": -0.416},
      {"smiles": "CCCCOc1cc(C(=O)OCCN(CC)CC)ccc1N", "note": "[Oxybuprocaine HCl]", "miR-132-3p level in NGN2-iNs": 0.208}
    ]}
  ]
}
